Assay results: the supplement of paper PMC11006884
The targets with a hit were mostly taken out for another list; the other results follow. Single values of this set are uncertain. This is a selection; strong and weak results do not stand in their true shares.

Chains of the proteins cited; added tags and fusions are not shown. Lines headed by an entry give the natural chain unless they say otherwise; changes in a name come on top.
UniProt O75427: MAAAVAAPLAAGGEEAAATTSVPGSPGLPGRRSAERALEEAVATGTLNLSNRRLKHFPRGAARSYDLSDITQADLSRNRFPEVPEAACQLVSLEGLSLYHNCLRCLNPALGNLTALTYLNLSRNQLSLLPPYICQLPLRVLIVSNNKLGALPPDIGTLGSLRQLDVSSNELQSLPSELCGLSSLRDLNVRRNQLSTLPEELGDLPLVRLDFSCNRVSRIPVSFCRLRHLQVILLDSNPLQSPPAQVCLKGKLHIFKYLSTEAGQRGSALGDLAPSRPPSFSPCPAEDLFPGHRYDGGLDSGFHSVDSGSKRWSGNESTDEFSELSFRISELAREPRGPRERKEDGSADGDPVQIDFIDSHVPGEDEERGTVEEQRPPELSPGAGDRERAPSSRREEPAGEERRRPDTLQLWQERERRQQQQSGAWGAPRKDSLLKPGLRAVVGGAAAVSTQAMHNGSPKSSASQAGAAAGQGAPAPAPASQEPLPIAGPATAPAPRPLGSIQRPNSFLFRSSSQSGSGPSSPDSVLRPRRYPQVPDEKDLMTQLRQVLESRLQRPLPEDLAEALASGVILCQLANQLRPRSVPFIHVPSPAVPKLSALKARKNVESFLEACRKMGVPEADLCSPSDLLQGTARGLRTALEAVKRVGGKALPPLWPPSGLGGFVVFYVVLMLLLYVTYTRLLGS
UniProt O43353, whole entry, looked up: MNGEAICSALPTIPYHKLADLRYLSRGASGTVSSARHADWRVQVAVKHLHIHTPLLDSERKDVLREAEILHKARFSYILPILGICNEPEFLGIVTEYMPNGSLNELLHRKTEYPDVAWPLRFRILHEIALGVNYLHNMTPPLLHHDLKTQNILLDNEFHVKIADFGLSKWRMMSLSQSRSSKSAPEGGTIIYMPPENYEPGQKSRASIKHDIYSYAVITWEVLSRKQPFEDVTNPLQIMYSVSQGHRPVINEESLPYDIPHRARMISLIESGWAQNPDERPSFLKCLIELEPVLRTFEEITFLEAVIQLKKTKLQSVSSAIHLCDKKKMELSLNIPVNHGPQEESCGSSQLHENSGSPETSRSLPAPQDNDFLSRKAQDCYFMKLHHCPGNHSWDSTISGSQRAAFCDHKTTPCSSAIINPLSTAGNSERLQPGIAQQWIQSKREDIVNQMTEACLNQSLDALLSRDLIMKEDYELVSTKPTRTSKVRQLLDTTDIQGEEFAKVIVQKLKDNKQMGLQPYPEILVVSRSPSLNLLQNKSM
UniProt O43823: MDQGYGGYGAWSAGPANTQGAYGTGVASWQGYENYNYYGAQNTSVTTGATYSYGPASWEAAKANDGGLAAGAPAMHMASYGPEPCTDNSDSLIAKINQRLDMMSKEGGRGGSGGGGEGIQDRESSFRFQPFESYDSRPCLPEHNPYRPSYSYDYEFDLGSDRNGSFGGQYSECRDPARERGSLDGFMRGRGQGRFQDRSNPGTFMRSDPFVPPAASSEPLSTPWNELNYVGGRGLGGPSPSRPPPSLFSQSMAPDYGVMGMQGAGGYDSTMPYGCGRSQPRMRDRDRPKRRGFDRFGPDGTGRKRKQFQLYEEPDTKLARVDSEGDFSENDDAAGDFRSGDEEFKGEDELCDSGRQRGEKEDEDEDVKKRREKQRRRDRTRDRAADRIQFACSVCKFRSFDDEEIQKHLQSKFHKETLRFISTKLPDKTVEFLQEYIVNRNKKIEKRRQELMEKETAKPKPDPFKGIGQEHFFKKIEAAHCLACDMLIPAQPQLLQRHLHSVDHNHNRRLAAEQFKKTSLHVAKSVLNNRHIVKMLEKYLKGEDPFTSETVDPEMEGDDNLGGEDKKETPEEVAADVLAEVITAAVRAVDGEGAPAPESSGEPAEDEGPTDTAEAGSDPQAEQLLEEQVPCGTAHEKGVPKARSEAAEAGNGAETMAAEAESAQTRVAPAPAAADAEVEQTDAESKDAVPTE
UniProt O60343: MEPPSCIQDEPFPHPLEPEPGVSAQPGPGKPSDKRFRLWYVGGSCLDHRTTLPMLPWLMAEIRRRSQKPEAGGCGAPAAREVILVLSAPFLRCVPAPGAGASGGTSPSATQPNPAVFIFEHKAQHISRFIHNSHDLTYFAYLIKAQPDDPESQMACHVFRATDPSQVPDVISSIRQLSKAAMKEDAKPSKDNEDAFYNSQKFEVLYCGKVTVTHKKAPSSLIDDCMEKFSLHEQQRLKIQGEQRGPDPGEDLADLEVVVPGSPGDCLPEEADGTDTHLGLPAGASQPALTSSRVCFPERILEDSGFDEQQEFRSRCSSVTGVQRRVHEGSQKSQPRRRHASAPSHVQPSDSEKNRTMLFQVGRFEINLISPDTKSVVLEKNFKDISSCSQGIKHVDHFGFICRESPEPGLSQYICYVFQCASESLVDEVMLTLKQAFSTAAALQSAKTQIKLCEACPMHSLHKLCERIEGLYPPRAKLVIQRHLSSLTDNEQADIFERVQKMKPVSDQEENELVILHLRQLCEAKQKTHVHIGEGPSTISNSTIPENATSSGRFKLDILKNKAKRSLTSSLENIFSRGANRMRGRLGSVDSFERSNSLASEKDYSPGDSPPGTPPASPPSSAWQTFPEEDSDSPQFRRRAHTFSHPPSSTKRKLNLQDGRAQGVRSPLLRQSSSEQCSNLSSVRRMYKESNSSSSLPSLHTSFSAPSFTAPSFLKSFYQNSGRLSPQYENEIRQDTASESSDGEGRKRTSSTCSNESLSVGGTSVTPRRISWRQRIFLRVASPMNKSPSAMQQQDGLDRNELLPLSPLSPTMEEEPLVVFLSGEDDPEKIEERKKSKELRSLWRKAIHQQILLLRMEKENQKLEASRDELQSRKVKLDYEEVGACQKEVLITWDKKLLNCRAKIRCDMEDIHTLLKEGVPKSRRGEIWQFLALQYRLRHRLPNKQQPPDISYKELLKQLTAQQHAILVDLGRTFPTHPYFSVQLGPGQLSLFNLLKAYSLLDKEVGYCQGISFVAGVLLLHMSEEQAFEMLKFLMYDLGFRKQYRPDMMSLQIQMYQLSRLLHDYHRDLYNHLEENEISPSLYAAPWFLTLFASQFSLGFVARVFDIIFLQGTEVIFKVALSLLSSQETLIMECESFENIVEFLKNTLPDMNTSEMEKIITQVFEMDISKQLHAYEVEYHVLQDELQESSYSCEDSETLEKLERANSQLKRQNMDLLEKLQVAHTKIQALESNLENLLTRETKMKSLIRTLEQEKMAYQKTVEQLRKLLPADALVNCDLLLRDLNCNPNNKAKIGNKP
UniProt O75150, whole entry, looked up: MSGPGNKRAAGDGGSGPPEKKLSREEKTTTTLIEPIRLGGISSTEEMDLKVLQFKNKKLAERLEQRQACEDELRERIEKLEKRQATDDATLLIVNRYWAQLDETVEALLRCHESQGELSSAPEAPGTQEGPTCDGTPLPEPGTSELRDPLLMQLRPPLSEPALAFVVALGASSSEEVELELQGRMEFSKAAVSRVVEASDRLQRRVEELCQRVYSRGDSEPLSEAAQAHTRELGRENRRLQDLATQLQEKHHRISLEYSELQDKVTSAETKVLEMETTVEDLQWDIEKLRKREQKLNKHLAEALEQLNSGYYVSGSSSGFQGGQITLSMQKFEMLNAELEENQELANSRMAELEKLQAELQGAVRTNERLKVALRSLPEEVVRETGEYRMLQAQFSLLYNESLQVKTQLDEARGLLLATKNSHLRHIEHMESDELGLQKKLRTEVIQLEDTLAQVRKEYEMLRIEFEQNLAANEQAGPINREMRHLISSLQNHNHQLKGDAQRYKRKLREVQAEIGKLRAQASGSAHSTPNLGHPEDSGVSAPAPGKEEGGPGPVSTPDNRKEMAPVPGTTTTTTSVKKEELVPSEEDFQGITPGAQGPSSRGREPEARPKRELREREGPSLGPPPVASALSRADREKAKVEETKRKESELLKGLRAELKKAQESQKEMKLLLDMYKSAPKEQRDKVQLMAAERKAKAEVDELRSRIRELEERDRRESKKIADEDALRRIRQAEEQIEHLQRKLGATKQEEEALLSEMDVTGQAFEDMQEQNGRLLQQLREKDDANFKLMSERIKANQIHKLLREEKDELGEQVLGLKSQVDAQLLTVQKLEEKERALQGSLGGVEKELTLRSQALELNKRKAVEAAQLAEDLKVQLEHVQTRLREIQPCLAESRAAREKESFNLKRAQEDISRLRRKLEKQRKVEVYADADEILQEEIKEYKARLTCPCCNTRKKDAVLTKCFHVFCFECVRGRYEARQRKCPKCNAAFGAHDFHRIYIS
UniProt O43707, whole entry, looked up: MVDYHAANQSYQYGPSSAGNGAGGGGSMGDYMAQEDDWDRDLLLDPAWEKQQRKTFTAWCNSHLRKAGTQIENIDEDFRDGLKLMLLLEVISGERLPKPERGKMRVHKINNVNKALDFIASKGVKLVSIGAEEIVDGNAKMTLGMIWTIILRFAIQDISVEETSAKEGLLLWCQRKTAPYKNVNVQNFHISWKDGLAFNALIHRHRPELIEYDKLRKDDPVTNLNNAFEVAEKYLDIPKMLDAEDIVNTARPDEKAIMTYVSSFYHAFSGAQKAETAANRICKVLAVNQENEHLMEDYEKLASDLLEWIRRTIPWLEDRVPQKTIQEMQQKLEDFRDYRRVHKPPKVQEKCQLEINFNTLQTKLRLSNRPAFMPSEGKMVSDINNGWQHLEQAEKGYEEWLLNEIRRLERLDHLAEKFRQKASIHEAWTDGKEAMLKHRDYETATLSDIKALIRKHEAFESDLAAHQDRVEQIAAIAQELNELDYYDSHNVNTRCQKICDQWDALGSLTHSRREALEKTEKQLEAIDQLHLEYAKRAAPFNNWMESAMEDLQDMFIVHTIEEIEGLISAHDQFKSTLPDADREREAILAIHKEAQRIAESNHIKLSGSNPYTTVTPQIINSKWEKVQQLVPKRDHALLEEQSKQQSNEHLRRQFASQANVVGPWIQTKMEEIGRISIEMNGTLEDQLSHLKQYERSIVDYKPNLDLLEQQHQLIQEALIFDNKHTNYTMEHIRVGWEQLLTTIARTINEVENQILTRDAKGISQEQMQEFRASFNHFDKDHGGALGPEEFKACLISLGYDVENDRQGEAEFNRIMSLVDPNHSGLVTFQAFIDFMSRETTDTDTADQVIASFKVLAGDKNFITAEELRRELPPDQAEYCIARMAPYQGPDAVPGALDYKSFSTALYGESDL
UniProt O75607: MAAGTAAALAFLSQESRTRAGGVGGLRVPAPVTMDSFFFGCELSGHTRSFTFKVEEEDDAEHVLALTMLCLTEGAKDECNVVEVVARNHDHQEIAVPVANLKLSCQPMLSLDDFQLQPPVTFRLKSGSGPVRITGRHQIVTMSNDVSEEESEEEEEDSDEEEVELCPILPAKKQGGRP
UniProt O60518: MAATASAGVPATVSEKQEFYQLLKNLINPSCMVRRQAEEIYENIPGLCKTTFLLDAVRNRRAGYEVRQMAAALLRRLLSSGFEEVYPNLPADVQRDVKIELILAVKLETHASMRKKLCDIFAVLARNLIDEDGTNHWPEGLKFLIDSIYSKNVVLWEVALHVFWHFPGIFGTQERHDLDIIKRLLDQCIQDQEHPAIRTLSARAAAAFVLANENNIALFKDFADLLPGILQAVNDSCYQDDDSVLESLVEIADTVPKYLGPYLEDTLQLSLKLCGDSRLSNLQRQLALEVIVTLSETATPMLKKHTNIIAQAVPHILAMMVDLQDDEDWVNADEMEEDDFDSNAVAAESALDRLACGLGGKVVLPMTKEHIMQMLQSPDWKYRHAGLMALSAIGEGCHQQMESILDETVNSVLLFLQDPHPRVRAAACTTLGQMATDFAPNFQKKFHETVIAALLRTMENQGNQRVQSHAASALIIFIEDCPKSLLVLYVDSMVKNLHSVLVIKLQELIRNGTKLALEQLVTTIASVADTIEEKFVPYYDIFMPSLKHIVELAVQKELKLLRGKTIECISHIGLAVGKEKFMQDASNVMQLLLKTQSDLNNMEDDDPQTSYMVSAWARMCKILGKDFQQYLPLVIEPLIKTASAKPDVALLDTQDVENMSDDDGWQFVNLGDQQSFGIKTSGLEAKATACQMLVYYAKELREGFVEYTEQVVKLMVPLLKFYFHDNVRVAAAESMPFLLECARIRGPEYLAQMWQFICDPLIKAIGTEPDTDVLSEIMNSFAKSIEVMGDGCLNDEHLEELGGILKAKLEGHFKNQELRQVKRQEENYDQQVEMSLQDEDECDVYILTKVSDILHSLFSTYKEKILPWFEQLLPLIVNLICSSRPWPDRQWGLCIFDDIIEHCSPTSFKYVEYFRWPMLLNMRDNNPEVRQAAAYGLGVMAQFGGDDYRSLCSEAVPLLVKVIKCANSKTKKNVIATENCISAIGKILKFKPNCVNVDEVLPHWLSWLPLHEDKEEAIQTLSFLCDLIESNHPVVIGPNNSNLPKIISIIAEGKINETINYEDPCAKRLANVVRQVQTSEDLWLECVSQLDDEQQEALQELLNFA
UniProt O75347: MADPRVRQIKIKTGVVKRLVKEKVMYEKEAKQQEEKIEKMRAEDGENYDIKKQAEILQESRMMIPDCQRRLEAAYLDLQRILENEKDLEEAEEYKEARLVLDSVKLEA

compound: COC(=O)/C=C/c1ccccc1 [methyl cinnamate]; assay: log2 ratio of iodoacetamide-alkyne labeling of the cysteine site, DMSO over compound (competition); higher = stronger covalent engagement of the cysteine by the compound, active = 1 or more; conditions: 500 µM; treatment time 1 h; system: HEK293T cell lysate
Summary of the method: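 For each cysteine, the log2 competition ratio is mean control-channel reporter intensity over mean compound-channel reporter intensity. HEK293T lysate (2 mg/mL) was exposed to vehicle or electrophile (500 µM, 1 h, ambient temperature), labelled with iodoacetamide alkyne (1 h), clicked to sCIP-TMT reagents, digested overnight with trypsin at 37 °C, streptavidin-enriched and analysed by Orbitrap Eclipse LC-MS/MS with FAIMS and FragPipe. Cysteines quantified in only one of three replicates, each with duplicate channels, were excluded.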

log2 ratio of iodoacetamide-alkyne labeling, inactive:
LRCH4 C571 (UniProt O75427) -0.308, HNRNPR C292 (UniProt O43390) 0.123, RRP9 C296 (UniProt O43818) 0.109, ERAL1 C425 (UniProt O75616) 0.181, RIPK2 C414 (UniProt O43353) 0.369, KPNA6 C208 (UniProt O60684) 0.0569, AKAP8 C275 (UniProt O43823) 0.213, AKR7A2 C214 (UniProt O43488) -0.128, TBC1D4 C316 (UniProt O60343) 0.213, AKAP8 C351 (UniProt O43823) 0.299, NME6 C167 (UniProt O75414) 0.153, UniProt O60664_C39 0.0101, UniProt O75164_C533 0.293, SRGAP2 C98 (UniProt O75044) 0.142, PRKRA C106 (UniProt O75569) 0.216, RNF40 C890 (UniProt O75150) 0.299, ACTN4 C499 (UniProt O43707) -0.0623, TBC1D4 C1277 (UniProt O60343) 0.221, NPM3 C41 (UniProt O75607) -0.186, UniProt O43776_C438 0.0957, AKAP8 C85 (UniProt O43823) 0.281, SART1 C645 (UniProt O43290) 0.0313, RANBP6 C48 (UniProt O60518) 0.348, MED7 C223 (UniProt O43513) 0.0257, SF3B1 C1059 (UniProt O75533) -0.278, TBC1D4 C74 (UniProt O60343) 0.236, NUP155 C917 (UniProt O75694) 0.229, SPAG9 C443 (UniProt O60271) 0.216, UniProt O60232_C125 0.286, CSDE1 C680 (UniProt O75534) 0.0443, BUB1 C339 (UniProt O43683) -0.116, MRPS14 C91 (UniProt O60783) 0.0205, SGTA C153 (UniProt O43765) -0.0128, CS C211 (UniProt O75390) 0.182, TBCA C67 (UniProt O75347) 0.249, UniProt O43303_C535 0.165, MPDZ C1794 (UniProt O75970) 0.263, PAK3 C424 (UniProt O75914) 0.281
